Laboratory results taken from PubChem BioAssay AID2685 (National Center for Advancing Translational Sciences (NCATS), 2010).
Out of some 320,000 compounds screened, about 2,100 (0.66%) were called active. The shares of active, inactive and inconclusive entries below differ from those in the screen. The call rests on the fitted dose curve; in most records, active means well fitted inhibition curve with a large enough effect in the signal ratio, with a control signal flat (not every such curve was filed as active); inconclusive means small, poorly fitted or top-dose-only effect, or effect the other way, or a change in a side signal; inactive means flat fitted curve, though single readings scatter; the % refers to the signal ratio. A potency beside an inconclusive call is a rough fit, not a confirmed value.

Assay: qHTS Assay for Lipid Storage Modulators in Drosophila S3 Cells
Conditions: BODIPY lipid droplet fluorescence, 18-24 h, cells fed with added oleic acid; lipid storage change, negative = inhibition: at 46.1 µM (top of the series) unless noted
In short: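 Drosophila S3 cells got compounds at several concentrations plus oleic acid (400 uM solution). Laser-scanning cytometry with 488 nm excitation read lipid droplets at 500-530 nm and cells at 575-640 nm. Percent activity was relative to 20 uM Triacsin C.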
On the % scale 0 is the no-effect control and ±100 the full control effect; potency means the concentration at half of the fitted maximal effect.

Lipid storage change, negative = inhibition, inconclusive:
CCOc1cc2c3c(c1)C1(C(=O)N3C(C)(C)CC2C)C(C#N)=C(N)N2C(=C1C#N)Nc1ccccc12 (stereo not given) -19.8%, CCCCCCC1CC(CCC(=O)Nc2ccc([N+](=O)[O-])cc2)C(=O)O1 (stereo not given) 21.1%, CCN(Cc1ccccc1)Cc1nc(CCc2ccccc2)no1 19.1%, O=C(NC(Cc1ccccc1)C(=O)O)/C(=C\c1ccc(Br)cc1)NC(=O)c1ccc(Br)o1 (stereo not given) -57.7%, COc1ccc(NC(=O)CCN2C(=O)c3ccccc3S2(=O)=O)cc1 -10.4%, CCc1cc2ccc(OC)cc2nc1SCC(=O)Nc1cc(C)on1 1.7%, CC1=NN(c2ccc(C)cc2C)C(=O)C1C(c1ccccc1O)C1C(=O)N(c2ccc(C)cc2C)N=C1C (stereo not given) -46.6%, Cc1ccc(O)c(NC(=O)c2ccc3c(c2)C(=O)N(CC(C)C)C3=O)c1 26.2%, O=C(N=C1SCC(=O)N1c1ccccc1Cl)c1ccco1 9.84%, COc1cc(NC(=O)c2ccc(N)nc2)cc(C(=O)Nc2cccc(C(F)(F)F)c2)c1 7.58%, Cn1nnnc1SCC(=O)N1CCN(c2cccc(Cl)c2)CC1 15.7%, Cc1ccc2ccc(S(=O)(=O)NCc3ccco3)cc2c1 37.4%, NNc1nc(-c2ccccc2Cl)nc2sc3c(c12)CCCC3 -56.9%, Cc1[nH]ccc(=O)c1OCc1c(Cl)cccc1Cl 66%, CCCCc1ccc(NC(=O)N[C@@H](C)C(=O)O)cc1 -6.45%, Cc1ccc(NC(=O)c2ccc(Cl)cc2Cl)cc1O 42.4%, CCCCNC(=O)NNC(=O)c1cc(C)on1 16.3%, COc1ccc(C2CC(=O)C(C=NCCN3CCN(C(C)=O)CC3)=C(O)C2)cc1OC (stereo not given) -9.31%, O=C(/C=C/c1ccco1)NC(=S)Nc1ccccc1 -4.93%, O=C(COC(=O)c1cc([N+](=O)[O-])ccc1N1CCOCC1)NC1CCCCC1 32.9%, Cc1cnc(C(=O)OC(C)C(=O)NC2CCCc3ccccc32)cn1 (stereo not given), O=C(C1=C[C@H](c2csc3ccccc23)C[C@H](OCc2ccc(CO)cc2)O1)N1CCN(Cc2ccc3c(c2)OCO3)CC1 -25.5%, CC1(NC(=O)CN2CCN(c3cnn(-c4ccccc4)c(=O)c3Cl)CC2)CCS(=O)(=O)C1 (stereo not given) -67.9%, COc1ccc(OC)c(N(CC(=O)NC2CC3CCC2C3)S(=O)(=O)c2ccccc2)c1 (stereo not given) 18.6%, COc1cc(C(=O)Nc2ccc3nc4n(c(=O)c3c2)CCCC4)ccc1Br -8.55%, Cc1ccc(O)c(/C=N/NC(=O)CN2CCCC2)c1 -100%, CC(NC(=O)c1ccc(N2CCNCC2)c([N+](=O)[O-])c1)C12CC3CC(CC(C3)C1)C2 (stereo not given) 5.88%, CCCn1nnnc1NCc1c(Cl)cccc1Cl -20.6%, CC(C)c1ccccc1-n1c(SCc2cc(=O)oc3ccc4ccccc4c23)nnc1-c1cccnc1 -42.5%, Cn1c(=O)c([N+](=O)[O-])c(NC2CCS(=O)(=O)C2)c2ccccc21 (stereo not given) -12.4%, CC(=O)Nc1cccc(C(=O)OC2CCOC2=O)c1 (stereo not given) 14.3%, COc1cccc(CNCC(=O)Nc2ccc(N3CCOCC3)cc2)c1 16.9%, COc1ccc(OC)c(CNC(=O)c2nn(C)c3c2CS(=O)(=O)c2ccccc2-3)c1 39%, CC(=O)c1c(C)[nH]c(C(=O)OCn2nnc3ccccc3c2=O)c1C 18.8%, CCCc1cc(=O)oc2c(C)c(OCC(=O)NC3CCN(Cc4ccccc4)CC3)ccc12 -46.2%, CC(NC(=O)COC(=O)Cc1ccccc1[N+](=O)[O-])c1ccccc1 (stereo not given) 42.4%, O=C(Cc1coc(-c2ccc(F)cc2)n1)Nc1ccccc1 14.6%, COc1ccc(CNc2cc(C)ccn2)cc1 17.4%, Cc1cc(NC(=O)CCN2C(=O)/C(=C/c3ccccc3Cl)SC2=S)no1 -14%, O=C(CCN1C(=O)C2C3C=CC(C3)C2C1=O)NCCN1CCCc2ccccc21 (stereo not given) 18.5%, CCCN1CCc2c(sc(NC(=O)c3ccc(S(=O)(=O)N4CCCC4)cc3)c2C(N)=O)C1 -19.9%, CCN(CC)C(=O)/C(=C/c1ccc2c(c1)OCO2)NC(=O)c1ccc(Br)cc1 13.7%, Cc1nc(NNC(=O)c2ccccc2)cc(-c2ccccc2)n1 158%, C/C(=N\Nc1cccc(C(F)(F)F)c1)c1ccc(O)cc1 6%

Lipid storage change, negative = inhibition, inactive:
CC(=O)N1N=C(c2c(-c3ccccc3)c3cc(C)ccc3[nH]c2=O)CC1c1ccco1 (stereo not given) 21.2%, Cc1ccccc1NS(=O)(=O)c1ccc(C)c(C(=O)N2CCOCC2)c1 10.2%, CCCC(C(=O)NCCC(C)C)N(Cc1ccc(F)cc1)C(=O)c1snc(C(N)=O)c1N (stereo not given) 3.86%

Potency, active:
CCOC(=O)C1=C(Nc2ccccc2)CC(C)(O)C(C(=O)OCC)C1c1ccc(Cl)cc1 (stereo not given) 1.16 µM

Potency, inconclusive:
CCOc1ccc(N2CC(C(=O)N3CCCC3)CC2=O)cc1 (stereo not given) 11.6 µM [activator, partial curve], CCOC(=O)C1(Cc2cccc(OC)c2)CCN(C2CCOCC2)CC1 7.31 µM [falling, partial curve, poor fit], Cc1ccc(S(=O)(=O)NC(CC(=O)O)c2ccccc2)cc1 (stereo not given) 29.1 µM [falling, single point], COC(=O)N/N=C/c1cn(CCCOc2ccc(C)cc2)c2ccccc12 0.0058 µM [activator, full curve, poor fit], O=C1CC(C(=O)N2CCOCC2)C2(CCCCC2)O1 (stereo not given) 2.06 µM [falling, full curve, poor fit], CC(C)(C)N1CC(c2nc3ccccc3n2Cc2ccc(F)cc2)CC1=O (stereo not given) 6.51 µM [activator, single point], COC(=O)c1ccccc1NC(=O)c1sc(Cl)nc1C 6.51 µM [falling, single point], CCOc1ccc(NC(=O)Nc2nc(SCC)ns2)cc1 29.1 µM [falling, single point], Cc1ccc(NC(=O)c2ccc(NCc3ccco3)c([N+](=O)[O-])c2)cc1Cl 14.6 µM [falling, partial curve], O=C(O)c1cccc2c1C(=O)N(C1CCCC1)C2 32.6 µM [falling, single point], COc1ccc(CC(=O)Nc2cccc(SC)c2)cc1OC 29.1 µM [falling, single point], O=c1c(Cl)c(NS(=O)(=O)c2ccccc2)cnn1-c1ccccc1 0.259 µM [activator, full curve, poor fit], CCOc1ccc(N2C(=O)C(Cl)=C(N3CCOCC3)C2=O)cc1 29.1 µM [falling, single point], Cc1nc(SCC(=O)NCC2CCCO2)c2oc3ccccc3c2n1 (stereo not given) 2.59 µM [activator, full curve], C=CCOc1ccc(/C(O)=C2/C(=O)C(=O)N(CCCn3ccnc3)C2c2cccs2)cc1 (stereo not given) 29.1 µM [falling, single point], Cc1nc(N2CCCC2C(=O)O)c2oc3ccccc3c2n1 (stereo not given) 4.11 µM [falling, single point], COc1ccc(NC(=O)NCc2ccco2)cc1OC 0.164 µM [falling, full curve, poor fit], COc1ccc(/C=C(\NC(=O)c2ccccc2)C(=O)N2CCN(C)CC2)cc1OC 6.51 µM [falling, single point], CCOc1ccc(NC(=O)CCCOc2cc(=O)n(C)c3ccccc23)cc1 1.3 µM [activator, full curve, poor fit], Cc1ccc(C(=O)N[C@H](C(=O)Nc2sccc2C(N)=O)C(C)C)cc1 0.103 µM [activator, full curve, poor fit], Fc1ccc(C2=CC(c3ccco3)n3ncnc3N2)cc1 (stereo not given) 6.51 µM [falling, partial curve, poor fit], O=C(NCCc1c[nH]c2ccccc12)/C(=C\c1cccs1)NC(=O)c1ccccc1 3.66 µM [activator, partial curve], CCC(C)NC(=O)c1cn(CC)c2ccc(S(=O)(=O)N3CCCCCC3)cc2c1=O (stereo not given) 29.1 µM [falling, single point], CCN(C(=O)COC(=O)CNC(=O)C1CCCCC1)c1ccccc1 1.16 µM [falling, single point], Cc1ccc2c3c1C(=O)C(=O)N3C(C)(C)CC2C (stereo not given) 29.1 µM [activator, single point], COc1ccc(S(=O)(=O)Nc2ccc(S(=O)(=O)Nc3nc(C)cc(C)n3)cc2)cc1OC 0.651 µM [falling, full curve, poor fit]

outcome, inactive:
O=C1CCCN1c1ccc(C(=O)N(Cc2nnc(-c3ccccc3Cl)o2)C2CC2)cc1 inactive [at 46.1 µM]
